Reference: PMC5102582 (eLife, 2016)
Results are given in words; binding and its absence hold for the method and conditions named.

Biological target: p47 UBX domain (residues 282-371) (Mus musculus) (UniProt Q9CZ44)
Experiment: SEC; HiLoad 16/60 Superdex 75 gel filtration column, during purification of p47 UBX; both purified

binding: no binding
B1: p47 UBX domain (residues 282-371) (domain or fragment, UniProt Q9CZ44 282-370)
chain: KASSSILINEAEPTTNIQIRLADGGRLVQKFNHSHRISDIRLFIVDARPAMAATSFVLMTTFPNKELADENQTLKEANLLNAVIVQRLT
